Some of the results follow.
Key:
Assay in all cases: log2 fold change, soluble protein after heating vs DMSO (PISA); higher = thermal stabilisation; K562 lysate, 10 uM; active = over 0.2 and 3.5 SD of the protein, either way, in both replicates (recomputed)
ibrutinib = compound: C=CC(=O)N1CCC[C@@H](n2nc(-c3ccc(Oc4ccccc4)cc3)c3c(N)ncnc32)C1 [ibrutinib]
Outline: (§1)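 To prepare the extract, K562 pellets were dounce-homogenised in PBS pH 7.4 with 1 mM MgCl2, giving crude material at 1 mg/mL protein. This was treated with 10 μM compound for 30 min, then heated in aliquots for 3 min over 48°C-58°C before pooling and addition of NP-40 to 0.5% at 4°C. Centrifugation at 21,000xg for 90 min left soluble protein in the supernatant, which TMTpro 16plex LC-MS/MS quantified with equalised channel sums. Results are log-two fold changes in thermal stability compared with solvent controls, from duplicates.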

The chains behind the UniProt entries cited, without tags or fusion partners. Where a name states a change or a piece, a line headed by the entry shows the natural chain unless it says otherwise.
UniProt Q05519: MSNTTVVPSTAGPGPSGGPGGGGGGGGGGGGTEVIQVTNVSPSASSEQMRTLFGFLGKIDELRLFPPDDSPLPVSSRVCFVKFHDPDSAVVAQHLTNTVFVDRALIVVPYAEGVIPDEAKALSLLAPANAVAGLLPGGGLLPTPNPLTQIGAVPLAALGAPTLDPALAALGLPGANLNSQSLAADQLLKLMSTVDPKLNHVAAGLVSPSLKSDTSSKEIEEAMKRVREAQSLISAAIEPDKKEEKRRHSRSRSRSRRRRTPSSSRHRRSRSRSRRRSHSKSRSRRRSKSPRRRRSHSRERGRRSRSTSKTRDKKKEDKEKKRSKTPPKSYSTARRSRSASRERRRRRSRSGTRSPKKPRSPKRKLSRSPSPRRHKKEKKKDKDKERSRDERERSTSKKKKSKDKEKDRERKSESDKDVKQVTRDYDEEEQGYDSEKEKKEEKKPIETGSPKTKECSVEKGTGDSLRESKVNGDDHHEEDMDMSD
UniProt Q04837: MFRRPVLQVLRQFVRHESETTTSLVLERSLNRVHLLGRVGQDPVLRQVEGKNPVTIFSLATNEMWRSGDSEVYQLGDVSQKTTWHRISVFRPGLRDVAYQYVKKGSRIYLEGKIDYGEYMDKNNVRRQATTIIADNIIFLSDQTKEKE
UniProt Q96JI7: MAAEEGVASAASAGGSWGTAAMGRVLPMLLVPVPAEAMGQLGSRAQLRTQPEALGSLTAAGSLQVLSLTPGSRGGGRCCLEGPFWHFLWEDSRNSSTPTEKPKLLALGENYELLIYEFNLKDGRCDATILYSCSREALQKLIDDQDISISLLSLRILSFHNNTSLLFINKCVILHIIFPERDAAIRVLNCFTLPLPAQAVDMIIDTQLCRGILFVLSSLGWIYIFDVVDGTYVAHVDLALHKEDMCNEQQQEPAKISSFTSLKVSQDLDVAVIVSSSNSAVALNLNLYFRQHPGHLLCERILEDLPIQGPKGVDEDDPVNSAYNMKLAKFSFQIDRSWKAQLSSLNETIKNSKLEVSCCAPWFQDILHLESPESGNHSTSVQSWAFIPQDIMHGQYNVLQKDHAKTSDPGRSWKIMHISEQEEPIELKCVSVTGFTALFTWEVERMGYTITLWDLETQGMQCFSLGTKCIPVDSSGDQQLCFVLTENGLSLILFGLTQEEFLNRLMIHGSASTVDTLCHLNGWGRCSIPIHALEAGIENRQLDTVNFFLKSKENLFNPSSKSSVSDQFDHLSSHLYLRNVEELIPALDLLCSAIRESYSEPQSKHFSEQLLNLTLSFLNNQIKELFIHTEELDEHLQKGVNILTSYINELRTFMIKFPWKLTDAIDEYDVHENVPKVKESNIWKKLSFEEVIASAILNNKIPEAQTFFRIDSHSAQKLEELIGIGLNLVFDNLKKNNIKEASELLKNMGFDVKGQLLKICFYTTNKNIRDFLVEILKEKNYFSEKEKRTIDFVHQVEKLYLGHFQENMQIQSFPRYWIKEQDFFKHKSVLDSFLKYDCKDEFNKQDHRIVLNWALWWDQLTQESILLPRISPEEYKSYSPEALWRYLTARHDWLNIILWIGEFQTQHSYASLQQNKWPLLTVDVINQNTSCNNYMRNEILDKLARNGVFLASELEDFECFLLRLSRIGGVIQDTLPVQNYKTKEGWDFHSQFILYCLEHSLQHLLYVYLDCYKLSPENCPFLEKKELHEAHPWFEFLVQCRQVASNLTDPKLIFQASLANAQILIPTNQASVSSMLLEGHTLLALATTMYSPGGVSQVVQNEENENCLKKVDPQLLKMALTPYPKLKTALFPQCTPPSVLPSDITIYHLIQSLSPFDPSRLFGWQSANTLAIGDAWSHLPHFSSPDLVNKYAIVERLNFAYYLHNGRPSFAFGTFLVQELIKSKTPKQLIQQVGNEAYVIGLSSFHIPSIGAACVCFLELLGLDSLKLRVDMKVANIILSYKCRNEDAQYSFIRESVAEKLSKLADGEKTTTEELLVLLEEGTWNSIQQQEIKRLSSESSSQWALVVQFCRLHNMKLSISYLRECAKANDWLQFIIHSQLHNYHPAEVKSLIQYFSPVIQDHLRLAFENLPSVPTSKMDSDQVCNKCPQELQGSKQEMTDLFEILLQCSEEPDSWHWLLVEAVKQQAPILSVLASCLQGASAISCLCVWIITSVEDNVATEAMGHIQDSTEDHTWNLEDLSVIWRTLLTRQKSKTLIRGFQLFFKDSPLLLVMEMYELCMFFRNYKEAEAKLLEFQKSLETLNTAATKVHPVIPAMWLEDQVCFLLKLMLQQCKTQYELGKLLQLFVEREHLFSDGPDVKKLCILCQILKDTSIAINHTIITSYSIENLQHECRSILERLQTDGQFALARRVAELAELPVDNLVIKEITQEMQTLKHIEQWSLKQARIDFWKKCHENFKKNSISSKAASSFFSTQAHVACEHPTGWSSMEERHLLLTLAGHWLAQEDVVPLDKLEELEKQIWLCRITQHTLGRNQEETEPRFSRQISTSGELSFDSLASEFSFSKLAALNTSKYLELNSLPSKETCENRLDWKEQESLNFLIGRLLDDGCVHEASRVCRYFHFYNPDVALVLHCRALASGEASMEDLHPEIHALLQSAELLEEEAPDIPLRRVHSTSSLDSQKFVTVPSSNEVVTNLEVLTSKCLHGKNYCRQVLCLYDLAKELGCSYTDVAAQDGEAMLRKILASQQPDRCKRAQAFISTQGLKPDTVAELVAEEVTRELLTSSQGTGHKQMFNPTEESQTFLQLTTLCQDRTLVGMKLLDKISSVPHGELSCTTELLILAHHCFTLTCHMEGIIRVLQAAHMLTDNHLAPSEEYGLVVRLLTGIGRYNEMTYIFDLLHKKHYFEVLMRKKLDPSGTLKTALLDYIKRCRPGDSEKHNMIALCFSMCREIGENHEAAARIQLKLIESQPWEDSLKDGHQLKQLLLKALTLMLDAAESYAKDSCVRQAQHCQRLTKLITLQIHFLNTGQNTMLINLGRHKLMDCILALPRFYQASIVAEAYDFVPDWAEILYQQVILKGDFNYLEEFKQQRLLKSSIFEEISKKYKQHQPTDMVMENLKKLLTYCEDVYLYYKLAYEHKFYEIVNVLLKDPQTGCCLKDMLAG
UniProt Q9HBM1: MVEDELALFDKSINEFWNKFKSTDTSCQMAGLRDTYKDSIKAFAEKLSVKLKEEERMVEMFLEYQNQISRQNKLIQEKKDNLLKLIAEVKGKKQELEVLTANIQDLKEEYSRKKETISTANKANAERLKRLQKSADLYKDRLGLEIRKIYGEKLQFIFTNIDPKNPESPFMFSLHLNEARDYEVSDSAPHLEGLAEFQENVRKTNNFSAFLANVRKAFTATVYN
UniProt Q9UNL2: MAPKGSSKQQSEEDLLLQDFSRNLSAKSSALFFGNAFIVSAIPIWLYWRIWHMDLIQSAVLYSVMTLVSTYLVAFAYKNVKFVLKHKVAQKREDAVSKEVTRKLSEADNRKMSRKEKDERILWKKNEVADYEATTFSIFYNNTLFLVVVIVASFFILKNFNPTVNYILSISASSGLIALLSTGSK
UniProt Q5W111: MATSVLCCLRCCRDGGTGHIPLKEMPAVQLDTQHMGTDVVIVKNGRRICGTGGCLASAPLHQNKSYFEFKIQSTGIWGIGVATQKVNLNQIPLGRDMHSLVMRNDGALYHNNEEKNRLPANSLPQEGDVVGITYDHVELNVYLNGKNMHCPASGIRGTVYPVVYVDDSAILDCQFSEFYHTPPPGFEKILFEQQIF
UniProt Q14849, whole entry, looked up: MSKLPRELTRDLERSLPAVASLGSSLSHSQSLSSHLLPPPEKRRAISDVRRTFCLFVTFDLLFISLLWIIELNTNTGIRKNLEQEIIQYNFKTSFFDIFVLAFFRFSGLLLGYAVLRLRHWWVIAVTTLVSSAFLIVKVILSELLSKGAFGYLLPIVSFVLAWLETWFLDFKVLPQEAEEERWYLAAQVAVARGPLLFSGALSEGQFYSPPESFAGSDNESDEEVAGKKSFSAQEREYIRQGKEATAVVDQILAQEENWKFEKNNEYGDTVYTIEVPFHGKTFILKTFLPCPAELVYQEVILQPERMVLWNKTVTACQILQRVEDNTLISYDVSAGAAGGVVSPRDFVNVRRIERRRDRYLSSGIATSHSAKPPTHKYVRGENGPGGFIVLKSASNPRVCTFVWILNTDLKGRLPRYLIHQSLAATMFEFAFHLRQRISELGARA
UniProt P52630: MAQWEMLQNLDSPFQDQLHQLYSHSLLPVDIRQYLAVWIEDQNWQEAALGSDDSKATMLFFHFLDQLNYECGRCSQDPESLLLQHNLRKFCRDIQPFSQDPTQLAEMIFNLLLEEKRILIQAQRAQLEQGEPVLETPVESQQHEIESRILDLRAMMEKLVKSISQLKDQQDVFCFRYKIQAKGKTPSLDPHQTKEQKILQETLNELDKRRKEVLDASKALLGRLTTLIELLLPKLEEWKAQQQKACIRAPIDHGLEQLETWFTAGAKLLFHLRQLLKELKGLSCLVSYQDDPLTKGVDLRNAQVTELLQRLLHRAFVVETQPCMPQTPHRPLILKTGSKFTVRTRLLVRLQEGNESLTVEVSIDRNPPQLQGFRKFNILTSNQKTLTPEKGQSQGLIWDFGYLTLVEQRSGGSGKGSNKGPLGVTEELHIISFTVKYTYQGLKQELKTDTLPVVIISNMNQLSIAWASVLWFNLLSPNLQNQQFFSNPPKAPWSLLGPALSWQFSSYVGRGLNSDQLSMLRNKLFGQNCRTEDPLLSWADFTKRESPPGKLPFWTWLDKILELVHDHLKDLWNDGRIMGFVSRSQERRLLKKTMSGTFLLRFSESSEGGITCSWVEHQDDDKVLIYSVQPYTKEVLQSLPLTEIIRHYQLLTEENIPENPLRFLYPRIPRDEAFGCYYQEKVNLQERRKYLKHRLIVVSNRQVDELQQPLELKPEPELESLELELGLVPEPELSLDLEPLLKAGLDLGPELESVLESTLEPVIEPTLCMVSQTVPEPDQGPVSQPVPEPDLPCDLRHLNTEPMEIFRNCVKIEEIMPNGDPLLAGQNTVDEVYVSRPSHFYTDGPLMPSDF
UniProt O95630, whole entry, looked up: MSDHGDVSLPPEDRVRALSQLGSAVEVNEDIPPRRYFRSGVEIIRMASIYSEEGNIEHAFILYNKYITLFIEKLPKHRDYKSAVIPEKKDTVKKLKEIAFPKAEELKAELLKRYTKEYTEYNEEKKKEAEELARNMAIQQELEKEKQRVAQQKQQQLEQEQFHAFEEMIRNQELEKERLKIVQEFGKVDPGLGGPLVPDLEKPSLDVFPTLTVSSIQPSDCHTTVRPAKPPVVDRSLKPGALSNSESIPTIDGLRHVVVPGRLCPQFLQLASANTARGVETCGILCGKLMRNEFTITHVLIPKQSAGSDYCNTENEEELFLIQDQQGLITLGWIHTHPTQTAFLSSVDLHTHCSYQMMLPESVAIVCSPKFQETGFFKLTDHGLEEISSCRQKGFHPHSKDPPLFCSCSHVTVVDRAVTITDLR
UniProt Q5M775: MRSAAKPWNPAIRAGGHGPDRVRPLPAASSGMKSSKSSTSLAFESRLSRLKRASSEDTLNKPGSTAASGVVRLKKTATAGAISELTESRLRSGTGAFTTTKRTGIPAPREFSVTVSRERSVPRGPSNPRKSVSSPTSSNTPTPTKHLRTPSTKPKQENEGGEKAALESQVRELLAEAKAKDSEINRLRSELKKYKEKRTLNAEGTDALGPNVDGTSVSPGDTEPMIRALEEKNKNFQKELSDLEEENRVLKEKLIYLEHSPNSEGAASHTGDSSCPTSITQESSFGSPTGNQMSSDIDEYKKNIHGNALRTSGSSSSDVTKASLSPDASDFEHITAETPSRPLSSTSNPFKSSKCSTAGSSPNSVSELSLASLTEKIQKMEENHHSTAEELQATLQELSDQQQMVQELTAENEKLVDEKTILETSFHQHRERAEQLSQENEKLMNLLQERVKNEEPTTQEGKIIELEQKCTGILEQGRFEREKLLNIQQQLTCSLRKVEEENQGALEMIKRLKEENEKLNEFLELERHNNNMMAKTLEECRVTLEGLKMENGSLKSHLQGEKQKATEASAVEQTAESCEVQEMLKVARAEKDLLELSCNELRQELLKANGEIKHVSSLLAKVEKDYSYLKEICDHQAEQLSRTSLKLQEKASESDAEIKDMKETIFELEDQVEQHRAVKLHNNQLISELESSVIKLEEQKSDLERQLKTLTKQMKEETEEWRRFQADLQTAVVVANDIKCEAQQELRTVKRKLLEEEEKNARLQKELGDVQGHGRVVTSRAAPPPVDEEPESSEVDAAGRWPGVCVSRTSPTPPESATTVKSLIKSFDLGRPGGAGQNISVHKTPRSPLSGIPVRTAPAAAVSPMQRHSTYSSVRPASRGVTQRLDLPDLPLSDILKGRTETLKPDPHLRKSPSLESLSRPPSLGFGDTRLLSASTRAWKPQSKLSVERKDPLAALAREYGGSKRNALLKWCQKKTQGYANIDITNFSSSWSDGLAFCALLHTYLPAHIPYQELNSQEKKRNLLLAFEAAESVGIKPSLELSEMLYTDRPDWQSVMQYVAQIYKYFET

[1] = compound: CC(=O)c1cnc2ccc(-c3cc(Cl)c(O)c(Cl)c3)nc2c1N[C@H]1CC[C@H](CN(C)C)CC1
Outline: as §1

ralimetinib = compound: CC(C)(C)Cn1c(N)nc2ccc(-c3[nH]c(C(C)(C)C)nc3-c3ccc(F)cc3)nc21 [ralimetinib]
Outline: as §1

[2] = compound: CC(C)(O)CC(=O)NCCn1ccc2ncnc(Nc3ccc(Oc4cccc(C(F)(F)F)c4)c(Cl)c3)c21
Outline: as §1

[3] = compound: CC(C)C1=C2N=C(C=C(N2N=C1)NCC3=CC=CC=C3)NCCCCCCN
Outline: as §1

[4] = compound: CC1=C(C(CC(=O)N1)C2=CC=C(C=C2)C(F)(F)F)C(=O)NC3=C(C=C4C(=C3)C=NN4)F
Outline: as §1

[5] = compound: CC1=C(C2=C(C=C1)C(=O)C3=CC=CC=C3N2CCCN)C
Outline: as §1

[6] = compound: CC1=C(C=C(C=C1)NC(=O)C2=CC(=CC=C2)C(C)(C)C#N)NC3=CC4=C(C=C3)N=CN(C4=O)C
Outline: as §1

[7] = compound: CC1=C(C=C(C=C1)NC(=O)C2=CC(=CC=C2)N(C)C)NC(=O)C3=CC=C(C=C3)O
Outline: as §1

[8] = compound: CC1=CC=C(C=C1)SC2=C3C=C(SC3=CN=C2)C(=O)N
Outline: as §1

vemurafenib = compound: CCCS(=O)(=O)Nc1ccc(F)c(C(=O)c2c[nH]c3ncc(-c4ccc(Cl)cc4)cc23)c1F [vemurafenib]
Outline: as §1

[9] = compound: CCCS(=O)(=O)Nc1ccc(F)c(C(=O)c2c[nH]c3ncc(Cl)cc23)c1F
Outline: as §1

barasertib = compound: CCN(CCCOc1ccc2c(Nc3cc(CC(=O)Nc4cccc(F)c4)[nH]n3)ncnc2c1)CCOP(=O)(O)O [barasertib]
Outline: as §1

[10] = compound: CC[C@@H]1C(=O)N(C)c2cnc(Nc3ccc(C(=O)NC4CCN(C)CC4)cc3OC)nc2N1C1CCCC1
Outline: as §1

volasertib = compound: CC[C@@H]1C(=O)N(C)c2cnc(Nc3ccc(C(=O)N[C@H]4CC[C@H](N5CCN(CC6CC6)CC5)CC4)cc3OC)nc2N1C(C)C [volasertib]
Outline: as §1

[11] = compound: CCn1c(C(=O)N(C2CC2)C2CC2)cc2c3c(ncn3C)c(Nc3cc(C)n(C)n3)nc21
Outline: as §1

[12] = compound: CCn1cc(-c2ccnc3[nH]c(-c4cccc(CN(C)C)c4)cc23)c(-c2ccc(NC(=O)N(C)C)cc2)n1
Outline: as §1

[13] = compound: CN1CCC(CNc2ccc3ncc(-c4cccc(OC(F)(F)F)c4)n3n2)CC1
Outline: as §1

saracatinib = compound: CN1CCN(CCOc2cc(OC3CCOCC3)c3c(Nc4c(Cl)ccc5c4OCO5)ncnc3c2)CC1 [saracatinib]
Outline: as §1

sotrastaurin = compound: CN1CCN(c2nc(C3=C(c4c[nH]c5ccccc45)C(=O)NC3=O)c3ccccc3n2)CC1 [sotrastaurin]
Outline: as §1

Measured: log2 fold change

SRF (UniProt P11831)
inactive: ibrutinib -0.078 | [1] 0.223 | ralimetinib 0.041 | [2] -0.03 | [3] -0.002 | [4] 0.087 | [5] -0.035 | [6] -0.002 | [7] -0.038 | [8] -0.013 | vemurafenib 0.029 | [9] 0.027 | barasertib 0.155 | [10] 0.069 | volasertib 0.039 | [11] -0.111 | [12] -0.029 | [13] -0.041 | saracatinib 0.043 | sotrastaurin 0.02

SRSF11 (UniProt Q05519)
inactive: ibrutinib 0.03 | [1] 0.023 | ralimetinib 0.002 | [2] 0.011 | [3] 0.019 | [4] 0.003 | [5] -0.001 | [6] -0.03 | [7] -0.003 | [8] 0.02 | vemurafenib -0.022 | [9] 0.007 | barasertib 0.018 | [10] -0.012 | volasertib -0.004 | [11] -0.018 | [12] 0.059 | [13] -0.026 | saracatinib 0.008 | sotrastaurin -0.01

SSBP1 (UniProt Q04837)
inactive: ibrutinib 0.004 | [1] -0.017 | ralimetinib -0.004 | [2] -0.028 | [3] -0.008 | [4] -0.01 | [5] 0.025 | [6] 0.014 | [7] 0.015 | [8] -0.032 | vemurafenib 0.032 | [9] -0.003 | barasertib -0.027 | [10] 0.028 | volasertib 0.029 | [11] -0.015 | [12] -0.044 | [13] 0.058 | saracatinib 0.004 | sotrastaurin 0.02

SPG11 (UniProt Q96JI7)
inactive: ibrutinib 0.077 | [1] 0.068 | ralimetinib 0.049 | [2] -0.024 | [3] -0.011 | [4] -0.048 | [5] -0.063 | [6] -0.061 | [7] 0.098 | [8] 0.007 | vemurafenib 0.084 | [9] -0.011 | barasertib 0.006 | [10] -0.042 | volasertib -0.037 | [11] -0.05 | [12] 0.06 | [13] -0.13 | saracatinib 0.077 | sotrastaurin 0.007

SPC25 (UniProt Q9HBM1)
inactive: ibrutinib 0 | [1] -0.058 | ralimetinib -0.038 | [2] 0.015 | [3] -0.002 | [4] -0.032 | [5] -0.017 | [6] 0.016 | [7] 0.002 | [8] 0.006 | vemurafenib 0.011 | [9] -0.008 | barasertib 0.036 | [10] 0.006 | volasertib -0.019 | [11] 0.012 | [12] -0.083 | [13] -0.004 | saracatinib 0.013 | sotrastaurin -0.013

SSR3 isoform 2 (UniProt Q9UNL2)
inactive: ibrutinib -0.004 | [1] 0.066 | ralimetinib -0.052 | [2] 0.125 | [3] 0.016 | [4] 0.006 | [5] 0.025 | [6] 0 | [7] -0.013 | [8] 0.043 | vemurafenib -0.22 | [9] -0.034 | barasertib 0.067 | [10] -0.016 | volasertib -0.04 | [11] 0.014 | [12] 0.291 | [13] -0.031 | saracatinib 0.018 | sotrastaurin 0.029

STARD10 (UniProt Q9Y365)
inactive: ibrutinib 0.028 | [1] -0.027 | ralimetinib -0.018 | [2] -0.087 | [3] -0.018 | [4] -0.031 | [5] 0.14 | [6] 0.005 | [7] 0.148 | [8] -0.015 | vemurafenib -0.007 | [9] 0.008 | barasertib 0.007 | [10] 0.005 | volasertib -0.047 | [11] 0.018 | [12] -0.12 | [13] -0.098 | saracatinib -0.022 | sotrastaurin 0.005

SPRYD7 (UniProt Q5W111)
inactive: ibrutinib 0.034 | [1] -0.004 | ralimetinib -0.005 | [2] -0.027 | [3] 0.03 | [4] -0.008 | [5] 0.001 | [6] -0.055 | [7] 0 | [8] -0.001 | vemurafenib 0.011 | [9] 0.02 | barasertib 0.002 | [10] -0.011 | volasertib 0.048 | [11] -0.026 | [12] -0.026 | [13] 0.009 | saracatinib 0.013 | sotrastaurin -0.096

2 successive entries already listed, for reference:
SSR3 isoform 2 (UniProt Q9UNL2)
inactive: ibrutinib -0.004 | [1] 0.066 | ralimetinib -0.052 | [2] 0.125 | [3] 0.016 | [4] 0.006 | [5] 0.025 | [6] 0 | [7] -0.013 | [8] 0.043 | vemurafenib -0.22 | [9] -0.034 | barasertib 0.067 | [10] -0.016 | volasertib -0.04 | [11] 0.014 | [12] 0.291 | [13] -0.031 | saracatinib 0.018 | sotrastaurin 0.029

STARD10 (UniProt Q9Y365)
inactive: ibrutinib 0.028 | [1] -0.027 | ralimetinib -0.018 | [2] -0.087 | [3] -0.018 | [4] -0.031 | [5] 0.14 | [6] 0.005 | [7] 0.148 | [8] -0.015 | vemurafenib -0.007 | [9] 0.008 | barasertib 0.007 | [10] 0.005 | volasertib -0.047 | [11] 0.018 | [12] -0.12 | [13] -0.098 | saracatinib -0.022 | sotrastaurin 0.005

Continuation.

STARD3 isoform 3 (UniProt Q14849)
inactive: ibrutinib 0.039 | [1] 0.044 | ralimetinib -0.074 | [2] -0.018 | [3] 0.011 | [4] 0.033 | [5] -0.072 | [6] 0.073 | [7] 0.021 | [8] 0.028 | vemurafenib 0.029 | [9] 0.054 | barasertib 0.051 | [10] 0.289 | volasertib 0.18 | [11] -0.031 | [12] -0.122 | [13] 0.02 | saracatinib -0.091 | sotrastaurin -0.016

STAT2 (UniProt P52630)
inactive: ibrutinib 0.007 | [1] 0.007 | ralimetinib 0.04 | [2] -0.026 | [3] -0.003 | [4] 0.009 | [5] -0.002 | [6] -0.059 | [7] 0.003 | [8] 0.004 | vemurafenib 0.04 | [9] 0.026 | barasertib -0.021 | [10] -0.03 | volasertib -0.047 | [11] 0.033 | [12] -0.011 | [13] -0.164 | saracatinib -0.009 | sotrastaurin 0.029

STAT3 isoform 3 (UniProt P40763)
inactive: ibrutinib -0.123 | [1] 0.022 | ralimetinib 0.047 | [2] -0.071 | [3] -0.117 | [4] -0.012 | [5] -0.056 | [6] 0.011 | [7] -0.049 | [8] 0.013 | vemurafenib -0.077 | [9] -0.032 | barasertib -0.049 | [10] -0.004 | volasertib -0.045 | [11] 0.01 | [12] 0.024 | [13] 0.003 | saracatinib 0.004 | sotrastaurin -0.044

STAMBP (UniProt O95630)
inactive: ibrutinib 0.033 | [1] 0.002 | ralimetinib -0.015 | [2] -0.004 | [3] 0.005 | [4] 0.018 | [5] -0.026 | [6] 0 | [7] 0.022 | [8] 0.031 | vemurafenib 0.003 | [9] -0.025 | barasertib -0.004 | [10] -0.019 | volasertib 0.002 | [11] -0.026 | [12] 0.148 | [13] 0.01 | saracatinib 0.031 | sotrastaurin 0.049

SPG7 (UniProt Q9UQ90)
inactive: ibrutinib 0.008 | [1] 0.156 | ralimetinib -0.014 | [2] -0.313 | [3] 0.037 | [4] 0.062 | [5] -0.005 | [6] 0.016 | [7] -0.217 | [8] 0.102 | vemurafenib 0.027 | [9] -0.025 | barasertib 0.131 | [10] 0.017 | volasertib 0.053 | [11] 0.26 | [12] 0.057 | [13] 0.025 | saracatinib -0.037 | sotrastaurin -0.035

SPCS3 (UniProt P61009)
inactive: ibrutinib -0.02 | [1] 0.016 | ralimetinib -0.014 | [2] 0.03 | [3] -0.036 | [4] 0.043 | [5] 0.008 | [6] -0.078 | [7] 0.005 | [8] 0.038 | vemurafenib -0.001 | [9] -0.046 | barasertib -0.006 | [10] -0.026 | volasertib 0.014 | [11] 0.09 | [12] 0.024 | [13] -0.076 | saracatinib -0.012 | sotrastaurin 0.001

SPECC1L (UniProt Q69YQ0)
inactive: ibrutinib 0.033 | [1] -0.017 | ralimetinib -0.025 | [2] -0.023 | [3] -0.023 | [4] -0.019 | [5] -0.009 | [6] 0.007 | [7] -0.001 | [8] -0.027 | vemurafenib -0.017 | [9] 0.019 | barasertib 0.004 | [10] 0.078 | volasertib -0.003 | [11] -0.019 | [12] -0.062 | [13] 0.072 | saracatinib 0.012 | sotrastaurin -0.005

SPECC1 (UniProt Q5M775)
inactive: ibrutinib -0.051 | [1] -0.024 | ralimetinib 0.051 | [2] -0.018 | [3] 0.042 | [4] 0.036 | [5] 0.02 | [6] 0.001 | [7] -0.013 | [8] -0.008 | vemurafenib -0.068 | [9] 0.016 | barasertib 0.147 | [10] 0.122 | volasertib -0.031 | [11] -0.021 | [12] -0.017 | [13] 0.009 | saracatinib 0.106 | sotrastaurin 0.049
